This passage reports binding results from publication PMC7966362.

Amino acid sequences for entries named in this document (tags omitted).
UniProt Q80SW1: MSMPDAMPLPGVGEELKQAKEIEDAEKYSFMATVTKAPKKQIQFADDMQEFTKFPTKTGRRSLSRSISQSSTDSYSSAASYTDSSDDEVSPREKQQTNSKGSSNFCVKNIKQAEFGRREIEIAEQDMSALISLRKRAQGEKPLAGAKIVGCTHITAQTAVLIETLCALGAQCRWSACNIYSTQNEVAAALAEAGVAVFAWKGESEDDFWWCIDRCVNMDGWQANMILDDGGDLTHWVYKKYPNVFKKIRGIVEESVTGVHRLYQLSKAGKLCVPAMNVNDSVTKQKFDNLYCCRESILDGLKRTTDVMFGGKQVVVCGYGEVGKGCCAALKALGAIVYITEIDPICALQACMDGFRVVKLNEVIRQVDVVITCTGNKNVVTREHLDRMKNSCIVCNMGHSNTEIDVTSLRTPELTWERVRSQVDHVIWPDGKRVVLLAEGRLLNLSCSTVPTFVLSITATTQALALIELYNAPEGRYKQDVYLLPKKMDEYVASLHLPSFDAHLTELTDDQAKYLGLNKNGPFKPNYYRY

Results are given in words; binding and its absence hold for the method and conditions named. In cells and extracts the contact can be indirect. A yes stands for co-enrichment or nearness to the bait. Other partners may have been found.

This assay concerns the target IRBIT (IP3R binding protein released with inositol 1,4,5-trisphosphate), endogenous (mouse (endogenous in B16-F10)) (UniProt Q80SW1). The experiment in a line: affinity purification with mass spectrometry; immunoprecipitation of endogenous IRBIT and L-IRBIT from B16-F10 cells (legend: B16-BL6) with anti-IRBIT and anti-L-IRBIT antibodies; SDS-PAGE, silver staining; bands analysed by LC-MS/MS.

B1: Anion exchanger 2 (AE2), endogenous (protein, UniProt P13808 1-1237)
chain: MSSAPRRPASGADSLHTPEPESLSPGTPGFPEQEEDELRTLGVERFEEILQEAGSRGGEEPGRSYGEEDFEYHRQSSHHIHHPLSTHLPPDARRRKTPQGPGRKPRRRPGASPTGETPTIEEGEEDEEEASEAEGFRAPPQQPSPATTPSAVQFFLQEDEGAERKPERTSPSPPTQTPHQEAAPRASKGAQTGTLVEEMVAVASATAGGDDGGAAGRPLTKAQPGHRSYNLQERRRIGSMTGVEQALLPRVPTDESEAQTLATADLDLMKSHRFEDVPGVRRHLVRKNAKGSTQAAREGREPGPTPRARPRAPHKPHEVFVELNELLLDKNQEPQWRETARWIKFEEDVEEETERWGKPHVASLSFRSLLELRRTLAHGAVLLDLDQQTLPGVAHQVVEQMVISDQIKAEDRANVLRALLLKHSHPSDEKEFSFPRNISAGSLGSLLGHHHAQGTESDPHVTEPLIGGVPETRLEVDRERELPPPAPPAGITRSKSKHELKLLEKIPENAEATVVLVGCVEFLSRPTMAFVRLREAVELDAVLEVPVPVRFLFLLLGPSSANMDYHEIGRSISTLMSDKQFHEAAYLADERDDLLTAINAFLDCSVVLPPSEVQGEELLRSVAHFQRQMLKKREEQGRLLPPGAGLEPKSAQDKALLQMVEVAGAAEDDPLRRTGRPFGGLIRDVRRRYPHYLSDFRDALDPQCLAAVIFIYFAALSPAITFGGLLGEKTKDLIGVSELIMSTALQGVVFCLLGAQPLLVIGFSGPLLVFEEAFFSFCSSNELEYLVGRVWIGFWLVFLALLMVALEGSFLVRFVSRFTQEIFAFLISLIFIYETFYKLIKIFQEHPLHGCSGSNDSEAGSSSSSNMTWATTILVPDNSSASGQSGQEKPRGQPNTALLSLVLMAGTFFIAFFLRKFKNSRFFPGRIRRVIGDFGVPIAILIMVLVDYSIEDTYTQKLSVPSGFSVTAPDKRGWVINPLGEKTPFPVWMMVASLLPAVLVFILIFMETQITTLIISKKERMLQKGSGFHLDLLLIVAMGGICALFGLPWLAAATVRSVTHANALTVMSKAVAPGDKPKIQEVKEQRVTGLLVALLVGLSMVIGDLLRQIPLAVLFGIFLYMGVTSLNGIQFYERLHLLLMPPKHHPDVTYVKKVRTMRMHLFTALQLLCLALLWAVMSTAASLAFPFILILTVPLRMVVLTRIFTEREMKCLDANEAEPVFDECEGVDEYNEMPMPV
In the case of B1, the binding entry was “binds”.
